# In patent US20100056612 (published 2010):
# Test: general procedure: hybrid (solid and solution phase) peptide synthesis; DIC or TBTU or HATU and HObt, DIPEA; DCC/HOBt
# Settings: TFA salt, can be converted to HCl salt; for conjugation yield: conjugation step
substance,measurement,setting,value
"6^A,6^D-dideoxy-6^A,6^D-di(Ala(β)-Gly-Gly-Lys-Lys-Lys-NH2)amino-β-cyclodextrin (GGKKK; beta-Ala, amidated, on beta-cyclodextrin; printed: Gly-Gly-Lys-Lys-Lys-)",conjugation yield,,53%
"6^A,6^D-dideoxy-6^A,6^D-di(Ala(β)-Gly-Lys-Lys-Lys-Lys-NH2)amino-β-cyclodextrin (GKKKK; beta-Ala, amidated, on beta-cyclodextrin; printed: Gly-Lys-Lys-Lys-Lys-)",conjugation yield,,25%
"6^A,6^D-dideoxy-6^A,6^D-di(Ala(β)-Gly-Lys-Lys-Lys-NH2)amino-β-cyclodextrin (GKKK; beta-Ala, amidated, on beta-cyclodextrin; printed: Gly-Lys-Lys-Lys-)",conjugation yield,,81%
"6^A,6^D-dideoxy-6^A,6^D-di(Gly-Arg-Arg-Arg-Gly-Lys-Lys-Lys-NH2)amino-β-cyclodextrin (GRRRGKKK; two copies conjugated to β-cyclodextrin; printed: Gly-Arg-Arg-Arg-Gly-Lys-Lys-Lys-)",step yield,coupling step,21%
"6^A,6^D-dideoxy-6^A,6^D-di(Gly-Arg-Arg-Arg-NH2)amino-β-cyclodextrin (GRRR; amidated, on beta-cyclodextrin; printed: Gly-Arg-Arg-Arg-)",conjugation yield,,88%
"6^A,6^D-dideoxy-6^A,6^D-di(Gly-Gly-Lys-Lys-Lys-Lys-NH2)amino-β-cyclodextrin (GGKKKK; amidated, on beta-cyclodextrin; printed: Gly-Gly-Lys-Lys-Lys-Lys-)",conjugation yield,,13%
"6^A,6^D-dideoxy-6^A,6^D-di(Gly-Lys-Lys-Lys-Lys-NH2)amino-β-cyclodextrin (GKKKK; amidated, on beta-cyclodextrin; printed: Gly-Lys-Lys-Lys-Lys-)",conjugation yield,,43%
"6^A,6^D-dideoxy-6^A,6^D-di[Gly-Lys(Boc)-Lys(Boc)-Lys(Boc)-Boc]amino-nonadecakis-O-benzyl-β-cyclodextrin",conjugation yield,,63%
"6^A,6^D-dideoxy-6^A,6^D-di[Gly-Lys(Boc)-Lys(Boc)-Lys(Boc)-Boc]amino-β-cyclodextrin",step yield,late stage modification step,66%
"6^A,6^D-dideoxy-6^A,6^D-di[Lys-(Gly-Lys-Lys-Lys-NH2)-Gly-Lys-Lys-Lys-NH2]amino-β-cyclodextrin (GKKK; Lys-branched, amidated, on beta-cyclodextrin; printed: Gly-Lys-Lys-Lys-)",conjugation yield,,71%
